Values of other authors in article doi:10.1101/2020.05.21.106633v1 (bioRxiv, 2020).

Conditions: cited from earlier work

## CC[C@@]1(O)C(=O)OCc2c1cc1n(c2=O)Cc2cc3ccccc3nc2-1 [CPT, camptothecin]
  solubility: poor solubility
